Data taken from patent publication US20060003434A1.
Results are given in words; binding and its absence hold for the method and conditions named. In cells and extracts the contact can be indirect. Some results given as binding are weak or reduced against the parent protein; the word gives no strength. Tags and fused reporters may be left off the sequences shown.

T1: 3HaMus81, endonuclease-inactive version of Mus81 (AA) (human) (UniProt Q96NY9)
T1 sequence (looked up): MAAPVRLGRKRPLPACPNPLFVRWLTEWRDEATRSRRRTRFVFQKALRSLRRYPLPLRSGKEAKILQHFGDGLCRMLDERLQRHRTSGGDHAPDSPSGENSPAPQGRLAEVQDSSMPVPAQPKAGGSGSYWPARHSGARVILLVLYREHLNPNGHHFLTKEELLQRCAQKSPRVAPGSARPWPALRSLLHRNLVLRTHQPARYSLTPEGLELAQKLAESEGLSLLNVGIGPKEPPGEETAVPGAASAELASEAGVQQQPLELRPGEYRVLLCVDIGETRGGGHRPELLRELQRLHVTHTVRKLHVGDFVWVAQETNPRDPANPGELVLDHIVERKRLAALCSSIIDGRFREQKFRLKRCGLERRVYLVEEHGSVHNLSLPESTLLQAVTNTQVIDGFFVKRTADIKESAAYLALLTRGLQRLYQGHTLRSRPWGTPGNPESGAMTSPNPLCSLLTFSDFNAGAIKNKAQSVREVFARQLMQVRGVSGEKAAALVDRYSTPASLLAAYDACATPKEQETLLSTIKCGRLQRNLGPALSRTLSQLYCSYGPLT

T2: FLAG-Eme1 (human Eme1 FLAG tagged at the C terminus; form A, B or C not stated at these places) (human) (UniProt Q96AY2)
T2 sequence (looked up): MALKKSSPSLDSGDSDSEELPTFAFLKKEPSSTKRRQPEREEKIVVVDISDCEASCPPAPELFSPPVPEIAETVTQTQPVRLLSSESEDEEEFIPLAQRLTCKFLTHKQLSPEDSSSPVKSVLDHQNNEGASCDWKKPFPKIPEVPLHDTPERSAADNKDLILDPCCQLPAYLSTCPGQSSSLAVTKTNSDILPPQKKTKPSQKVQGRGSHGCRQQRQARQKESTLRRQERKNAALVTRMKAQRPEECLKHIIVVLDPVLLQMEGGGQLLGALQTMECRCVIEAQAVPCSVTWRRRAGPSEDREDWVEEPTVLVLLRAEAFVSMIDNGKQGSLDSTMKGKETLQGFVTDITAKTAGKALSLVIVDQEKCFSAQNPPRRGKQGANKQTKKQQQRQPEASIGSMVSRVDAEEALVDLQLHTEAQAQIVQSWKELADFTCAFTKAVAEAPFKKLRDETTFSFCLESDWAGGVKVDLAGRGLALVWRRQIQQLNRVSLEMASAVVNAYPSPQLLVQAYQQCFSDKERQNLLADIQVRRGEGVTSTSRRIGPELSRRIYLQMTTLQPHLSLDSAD


Key:
[1] = target: T1, 3HaMus81, endonuclease-inactive version of Mus81 (AA) (human); test: co-immunoprecipitation (Ha IP, FLAG blot), transfected cells, FIG. 13C
[2] = target: T1, 3HaMus81, endonuclease-inactive version of Mus81 (AA) (human); test: co-immunoprecipitation (Ha IP, FLAG blot), transfected cells
[3] = target: T2, FLAG-Eme1 (human Eme1 FLAG tagged at the C terminus; form A, B or C not stated at these places) (human); test: co-immunoprecipitation (anti-FLAG IP, Ha blot), transfected 293 cells, FIG. 15B
[4] = target: T2, FLAG-Eme1 (human Eme1 FLAG tagged at the C terminus; form A, B or C not stated at these places) (human); test: co-immunoprecipitation (anti-FLAG IP, Ha blot), self-association of Eme1, transfected 293 cells

Row | Binder | binding [1] | binding [2] | binding [3] | binding [4]
1 | FLAG-Heme1B (human Eme1B, FLAG tagged at the C terminus) (protein, not shown: small tags and cut ends) MALKKSSPSLDSGDSDSEELPTFAFLKKEPSSTKRRQPEREEKIVVVDISDCEASCPPAPELFSPPVPDIAETVTQTQPVRLLSSESEDEEEFIPLAQRLTCKFLTHKQLSPEDSSSPVKSVLDHQNNEGASCDWKKQPFPKIPEVPLHDTPERSAADNKDLILDPCCQLPAYLSTCPGQSSSLAVTKTNSDILPPQKKTKPSQKVQGRGSHGCRQQRQARQKESTLRRQERKNAALVTRMKAQRPEECLKHIIVVLDPVLLQMEGGGQLLGALQTMECRCVIEAQAVPCSVTWRRRAGPSEDREDWVEEPTVLVLLRAEAFVSMIDNGKQGSLDSTMKGKETLQGFVTDITAKTAGKALSLVIVDQEKCFSAQNPPRRGKQGANKQTKKQQQRQPEASIGSMVSRVDAEEALVDLQLHTEAQAQIVQSWKELADFTCAFTKAVAEAPFKKLRDETTFSFCLESDWAGGVKVDLAGRGLALVWRRQIQQLNRVSLEMASAVVNAYPSPQLLVQAYQQCFSDKERQNLLADIQVRRGEGVTSTSRRIGPELSRRIYLQMTTLQPHLSLDSAD | binds | binds | – | –
2 | 3HaEme1 (Heme1B cloned into pcDNA-3Ha) (protein, not shown: small tags and cut ends) MALKKSSPSLDSGDSDSEELPTFAFLKKEPSSTKRRQPEREEKIVVVDISDCEASCPPAPELFSPPVPDIAETVTQTQPVRLLSSESEDEEEFIPLAQRLTCKFLTHKQLSPEDSSSPVKSVLDHQNNEGASCDWKKQPFPKIPEVPLHDTPERSAADNKDLILDPCCQLPAYLSTCPGQSSSLAVTKTNSDILPPQKKTKPSQKVQGRGSHGCRQQRQARQKESTLRRQERKNAALVTRMKAQRPEECLKHIIVVLDPVLLQMEGGGQLLGALQTMECRCVIEAQAVPCSVTWRRRAGPSEDREDWVEEPTVLVLLRAEAFVSMIDNGKQGSLDSTMKGKETLQGFVTDITAKTAGKALSLVIVDQEKCFSAQNPPRRGKQGANKQTKKQQQRQPEASIGSMVSRVDAEEALVDLQLHTEAQAQIVQSWKELADFTCAFTKAVAEAPFKKLRDETTFSFCLESDWAGGVKVDLAGRGLALVWRRQIQQLNRVSLEMASAVVNAYPSPQLLVQAYQQCFSDKERQNLLADIQVRRGEGVTSTSRRIGPELSRRIYLQMTTLQPHLSLDSAD | – | – | binds | binds
